No constants are given. Whether binding was seen depends on the method and setting. In cells and extracts the contact can be indirect. Some binding calls cover weakened binding; strength is not graded here. Sequences can lack the tags named with a protein.
Tests used:
[1] = biological target: T1, PDS5A (mouse (endogenous in mESCs)) (UniProt Q6A026); experiment: co-IP; WT mESC nuclear lysates (Benzonase-digested), 100 ug protein per IP, low stringency, native (uncrosslinked) conditions as per Active Motif Nuclear Complex Co-IP Kit; antibody on Protein G Dynabeads; western blot
T1 sequence: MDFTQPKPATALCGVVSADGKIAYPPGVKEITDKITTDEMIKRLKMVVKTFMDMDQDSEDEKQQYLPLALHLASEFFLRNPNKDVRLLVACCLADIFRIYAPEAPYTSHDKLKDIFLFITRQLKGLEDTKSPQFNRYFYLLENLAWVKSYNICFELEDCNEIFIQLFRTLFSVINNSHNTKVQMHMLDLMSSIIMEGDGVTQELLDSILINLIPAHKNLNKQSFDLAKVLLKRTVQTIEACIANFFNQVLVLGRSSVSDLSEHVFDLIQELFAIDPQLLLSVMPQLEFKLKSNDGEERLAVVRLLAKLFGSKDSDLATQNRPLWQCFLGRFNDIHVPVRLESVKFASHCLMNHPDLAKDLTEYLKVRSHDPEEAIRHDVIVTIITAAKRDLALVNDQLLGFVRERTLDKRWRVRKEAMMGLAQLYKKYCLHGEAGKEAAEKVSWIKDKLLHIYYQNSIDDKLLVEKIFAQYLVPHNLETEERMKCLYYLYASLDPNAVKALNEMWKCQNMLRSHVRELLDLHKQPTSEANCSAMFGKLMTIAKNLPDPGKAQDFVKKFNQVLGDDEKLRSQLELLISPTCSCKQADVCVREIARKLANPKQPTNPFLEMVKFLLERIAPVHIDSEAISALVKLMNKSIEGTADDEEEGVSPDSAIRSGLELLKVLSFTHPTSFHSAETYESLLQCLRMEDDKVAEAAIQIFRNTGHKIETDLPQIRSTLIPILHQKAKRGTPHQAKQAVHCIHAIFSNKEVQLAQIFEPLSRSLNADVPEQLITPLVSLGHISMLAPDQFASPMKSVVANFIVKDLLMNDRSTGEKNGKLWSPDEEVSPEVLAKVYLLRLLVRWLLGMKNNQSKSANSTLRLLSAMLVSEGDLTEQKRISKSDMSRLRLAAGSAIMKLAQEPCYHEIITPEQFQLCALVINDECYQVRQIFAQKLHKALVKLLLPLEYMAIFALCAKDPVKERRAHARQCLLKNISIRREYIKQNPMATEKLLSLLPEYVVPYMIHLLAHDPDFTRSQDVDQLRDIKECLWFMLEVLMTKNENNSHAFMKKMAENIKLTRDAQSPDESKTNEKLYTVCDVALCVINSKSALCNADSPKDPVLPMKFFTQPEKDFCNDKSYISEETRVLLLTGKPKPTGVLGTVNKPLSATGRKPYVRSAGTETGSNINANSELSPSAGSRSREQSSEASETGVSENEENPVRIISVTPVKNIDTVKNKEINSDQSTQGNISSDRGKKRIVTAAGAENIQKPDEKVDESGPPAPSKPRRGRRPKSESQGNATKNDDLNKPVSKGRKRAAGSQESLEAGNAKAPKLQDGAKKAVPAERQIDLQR

[2] = biological target: T2, PDS5B (mouse (endogenous in mESCs)) (UniProt Q4VA53); experiment: as above
T2 sequence: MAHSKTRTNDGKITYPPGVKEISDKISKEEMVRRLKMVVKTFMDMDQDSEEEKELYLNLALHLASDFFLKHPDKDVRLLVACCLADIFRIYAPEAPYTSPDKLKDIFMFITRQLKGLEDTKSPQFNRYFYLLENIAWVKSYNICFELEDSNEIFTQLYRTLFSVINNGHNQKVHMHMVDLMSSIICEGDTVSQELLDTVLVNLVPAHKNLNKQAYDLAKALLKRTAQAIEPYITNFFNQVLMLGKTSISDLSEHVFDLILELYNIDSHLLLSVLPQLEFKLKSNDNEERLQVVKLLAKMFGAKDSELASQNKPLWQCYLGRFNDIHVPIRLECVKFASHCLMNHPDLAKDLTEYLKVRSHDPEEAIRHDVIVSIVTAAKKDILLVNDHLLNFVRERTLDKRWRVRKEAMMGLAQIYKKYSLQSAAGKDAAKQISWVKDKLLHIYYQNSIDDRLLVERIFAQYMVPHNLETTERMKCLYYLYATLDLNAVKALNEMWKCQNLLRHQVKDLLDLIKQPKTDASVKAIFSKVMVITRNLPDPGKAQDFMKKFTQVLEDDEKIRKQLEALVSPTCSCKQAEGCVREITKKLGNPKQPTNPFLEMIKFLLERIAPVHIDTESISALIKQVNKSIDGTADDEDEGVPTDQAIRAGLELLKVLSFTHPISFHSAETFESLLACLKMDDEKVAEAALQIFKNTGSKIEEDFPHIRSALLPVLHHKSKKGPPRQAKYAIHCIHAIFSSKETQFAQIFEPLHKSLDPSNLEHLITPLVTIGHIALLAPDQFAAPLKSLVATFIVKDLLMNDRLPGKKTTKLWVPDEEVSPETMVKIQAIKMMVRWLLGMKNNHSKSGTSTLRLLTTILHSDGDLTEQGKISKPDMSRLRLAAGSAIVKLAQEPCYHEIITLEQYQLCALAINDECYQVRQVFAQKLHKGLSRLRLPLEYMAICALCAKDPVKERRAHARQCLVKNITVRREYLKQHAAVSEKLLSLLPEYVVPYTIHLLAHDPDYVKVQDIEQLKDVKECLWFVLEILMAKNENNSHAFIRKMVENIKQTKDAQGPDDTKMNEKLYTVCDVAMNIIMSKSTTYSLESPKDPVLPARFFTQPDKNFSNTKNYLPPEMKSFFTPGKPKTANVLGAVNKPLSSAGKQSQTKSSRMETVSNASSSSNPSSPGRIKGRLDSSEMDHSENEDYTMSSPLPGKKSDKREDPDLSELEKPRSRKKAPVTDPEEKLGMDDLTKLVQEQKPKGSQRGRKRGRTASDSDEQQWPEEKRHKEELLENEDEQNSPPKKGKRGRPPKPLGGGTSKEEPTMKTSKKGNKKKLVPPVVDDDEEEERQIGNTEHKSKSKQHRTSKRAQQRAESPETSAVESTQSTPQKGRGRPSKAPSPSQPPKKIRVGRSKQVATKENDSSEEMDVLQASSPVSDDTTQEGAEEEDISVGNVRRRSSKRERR

[3] = biological target: T1, PDS5A (mouse (endogenous in mESCs)); experiment: co-IP; WT mESC nuclear lysates (Benzonase-digested), 100 ug protein per IP, high stringency (high salt and detergent), native (uncrosslinked) conditions as per Active Motif Nuclear Complex Co-IP Kit; antibody on Protein G Dynabeads; western blot
[4] = biological target: T2, PDS5B (mouse (endogenous in mESCs)); experiment: as above

- binding [1]: binds
- binding [2]: binds
- binding [3]: binds
- binding [4]: binds
B1: STAG2 (protein, UniProt O35638 1-1231)
chain: MIAAPEIPTDFNLLQESETHFSSDTDFEDIEGKNQKQGKGKTCKKGKKGPAEKGKSGNGGGKPPSGSNRMNGHHQQNGVENMMLFEVVKMGKSAMQSVVDDWIESYKHDRDIALLDLINFFIQCSGCKGVVTAEMFRHMQNSEIIRKMTEEFDEDSGDYPLTMAGPQWKKFKSSFCEFIGVLVRQCQYSIIYDEYMMDTVISLLTGLSDSQVRAFRHTSTLAAMKLMTALVNVALNLSINMDNTQRQYEAERNKMIGKRANERLELLLQKRKELQENQDEIENMMNAIFKGVFVHRYRDAIAEIRAICIEEIGIWMKMYSDAFLNDSYLKYVGWTMHDKQGEVRLKCLTALQGLYYNKELNSKLELFTSRFKDRIVSMTLDKEYDVAVQAIKLLTLVLQSSEEVLTAEDCENVYHLVYSAHRPVAVAAGEFLYKKLFSRRDPEEDGLMKRRGRQGPNANLVKTLVFFFLESELHEHAAYLVDSMWDCATELLKDWECMNSLLLEEPLSGEEALTDRQESALIEIMLCTIRQAAECHPPVGRGTGKRVLTAKEKKTQLDDRTRITELFAVALPQLLAKYSVDAEKVTNLLQLPQYFDLEIYTTGRLEKHLDALLRQIRNIVEKHTDTDVLEACSKTYHALCNEEFTIFNRVDISRSQLIDELADKFNRLLEDFLQEGEEPDEDDAYQVLSTLKRITAFHNAHDLSKWDLFACNYKLLKTGIENGDMPEQIVIHALQCAHYVILWQLAKITESTSTKEDLLRLKKQMRVFCQICQHYLTNVNTTVKEQAFTILCDILMIFSHQIMSGGRDMLEPLVYTPDSSLQSELLSFILDHVFIEQDDDSNSADGQQEDEASKIEALHKRRNLLAAFCKLIVYTVVEMNTAADIFKQYMKYYNDYGDIIKETMSKTRQIDKIQCAKTLILSLQQLFNEMIQENGYNFDRSSSTFSGIKELARRFALTFGLDQLKTREAIAMLHKDGIEFAFKEPNPQGESHPPLNLAFLDILSEFSSKLLRQDKRTVYVYLEKFMTFQMSLRREDVWLPLMSYRNSLLAGGDDDTMSVISGMSSRGSTVRSKKSKPSTGKRKVVEGMQLALPEESSSSDSMWLSREQTLHTPVMMQTPQLTSTIMREPKRLRPEDSFMSVYPMQAEHHQTPLDYNRRGTSLMEDDEEPIVEDVMMSSEGRIEDLNEGMDFDTMDIDLPPSKNRRERTELKPDFFDPASIMDESVLGVSMF
